Source: PubChem BioAssay AID588590 (National Center for Advancing Translational Sciences (NCATS), 2011)
Screen size: about 390,000 compounds; about 4,000 (1%) were called active. This list was built around the results that the source calls inconclusive (neither active nor inactive); the mix of calls is not that of the screen. The call rests on the fitted dose curve; in most records, active means well fitted inhibition curve with a large enough effect; inconclusive means small, poorly fitted or top-dose-only effect, or another doubt; inactive means no such curve, though single readings can be large or run the other way. A potency beside an inconclusive call is a rough fit, not a confirmed value.
Potency means the concentration at half of the fitted maximal effect.

The chains behind the UniProt entries cited, without tags or fusion partners. Where a name states a change or a piece, a line headed by the entry shows the natural chain unless it says otherwise.
UniProt Q9UNA4: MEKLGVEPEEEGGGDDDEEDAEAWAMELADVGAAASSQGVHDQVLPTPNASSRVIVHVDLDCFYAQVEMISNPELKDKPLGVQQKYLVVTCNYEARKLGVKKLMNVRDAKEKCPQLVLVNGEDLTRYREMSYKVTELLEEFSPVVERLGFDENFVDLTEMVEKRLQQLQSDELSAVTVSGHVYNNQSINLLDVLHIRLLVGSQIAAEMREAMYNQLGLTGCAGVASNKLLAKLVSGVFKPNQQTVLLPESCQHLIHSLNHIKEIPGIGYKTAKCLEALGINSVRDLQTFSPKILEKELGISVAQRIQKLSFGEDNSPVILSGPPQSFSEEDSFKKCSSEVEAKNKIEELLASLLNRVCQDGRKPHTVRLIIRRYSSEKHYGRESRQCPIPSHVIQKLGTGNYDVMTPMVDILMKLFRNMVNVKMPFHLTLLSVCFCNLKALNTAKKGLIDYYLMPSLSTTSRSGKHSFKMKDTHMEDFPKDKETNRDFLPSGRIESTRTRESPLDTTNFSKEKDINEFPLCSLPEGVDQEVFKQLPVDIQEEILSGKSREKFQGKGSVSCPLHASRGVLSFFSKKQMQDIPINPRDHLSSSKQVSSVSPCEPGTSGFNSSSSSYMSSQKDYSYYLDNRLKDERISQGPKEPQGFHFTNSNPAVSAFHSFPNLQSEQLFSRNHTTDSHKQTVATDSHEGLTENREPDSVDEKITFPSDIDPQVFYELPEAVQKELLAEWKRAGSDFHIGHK

These compounds were tested against DNA polymerase iota (Homo sapiens) (UniProt Q9UNA4) (assay: qHTS for Inhibitors of Polymerase Iota). Conditions: Pol iota fluorescent replication assay, 10 min; series mostly up to 115 µM.
Summary of the method: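 Pol iota at 10 nM preincubated 15 min with compounds at room temperature; reaction started with fluorescent substrate, 50 nM final. Fluorescence read kinetically at 0 and 10 min; buffer-only wells as negative control.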
With `CC1=C(C(=O)Nc2ccccc2)C(CC(C)C)n2nc(SCc3ccccc3C)nc2N1` (stereo not given) the Potency was “inactive”. With `COc1ccc(S(=O)(=O)N2CCN(Cc3cc(OC)c(OC)c(OC)c3)CC2)cc1` the Potency was “inactive”. With `NS(=O)(=O)c1ccc(NC(=O)CSc2nc3c(c(=O)[nH]2)CCCC3)cc1` the Potency was inconclusive: 70.8 µM [inhibitor, single point]. For `Cc1ccccc1OCC(=O)OCC(=O)c1cc(C)n(C2CC2)c1C`, the Potency was inconclusive: 14.1 µM [inhibitor, full curve, poor fit]. For `O=C(CNC(=O)c1cccs1)NCCc1ccco1`, the Potency was inconclusive: 39.8 µM [inhibitor, partial curve]. `c1ccc(C2C/C(=N\N3CCOCC3)c3ccccc3O2)cc1` (stereo not given) was tested, and the Potency was “inactive”. With `CC(=O)/C=C/n1c(=S)oc2ccccc21` the Potency was inconclusive: 25.1 µM [inhibitor, partial curve, poor fit]. For `O=C(CNC(=O)COc1ccccc1)NCc1cccnc1`, the Potency was “inactive”. For `CCOc1cccc(C2C=C(c3ccc4c(c3)OCO4)NC(c3ccccc3F)N2)c1O` (stereo not given), the Potency was inconclusive: 63.1 µM [inhibitor, partial curve, poor fit]. With `O=c1[nH]c(-[n+]2ccccc2)c(/C=N/NC([S-])=Nc2ccccc2)s1` the Potency was “inactive”. For `O=c1[nH]c2c(n(C3CCCCC3)c1=O)CCC2`, the Potency was inconclusive: 31.6 µM [inhibitor, single point]. In the case of `COc1cccc(CNC(=O)CCNS(=O)(=O)c2ccc3[nH]c(=O)oc3c2)c1`, the Potency is reported as inconclusive: 79.4 µM [inhibitor, partial curve]. For `O=C(N/N=C/c1cc(Br)c(O)c(Br)c1O)c1ccc2c(c1)OCCO2`, the Potency was inconclusive: 56.2 µM [inhibitor, partial curve, poor fit]. In the case of `CCCCS(=O)(=O)/C=C\C1C2C=CC(C2)C1S(=O)(=O)CCCC` (stereo not given), the Potency is reported as “inactive”. In the case of `Cc1ccc(OCC(=O)NNC(=O)CSC(=S)N2CCCC2)cc1`, the Potency is reported as inconclusive: 28.2 µM [inhibitor, partial curve, poor fit]. `CC(NC(=O)CN(c1ccc(Cl)cc1Cl)S(=O)(=O)c1ccccc1)c1ccccc1` (stereo not given) was tested, and the Potency was “inactive”. For `CC(CN(C)Cc1ccccc1)OC(=O)c1ccc2c(c1)OCCO2` (stereo not given), the Potency was inconclusive: 39.8 µM [inhibitor, partial curve, poor fit]. In the case of `CCn1c(=O)c2sccc2n2c(CCC(=O)N3CCN(c4ccc(C(C)=O)cc4)CC3)nnc12`, the Potency is reported as “inactive”. With `O=C(Cc1ccc(S(=O)(=O)N2CCCC2)s1)N1CCOCC1` the Potency was inconclusive: 35.5 µM [inhibitor, full curve, poor fit]. `CCOc1cccc2cc(C(=O)Oc3ccc(OC)cc3)c(=O)oc12` was tested, and the Potency was “inactive”. `COc1ccc(C(C(=O)NC2CCCC2)N2CCc3ccccc32)cc1` (stereo not given) was tested, and the Potency was inconclusive: 6.31 µM [inhibitor, single point]. For `CCn1c(=O)cc(OCC(=O)N2CCN(C(=O)c3ccco3)CC2)c2ccccc21`, the Potency was inconclusive: 14.1 µM [inhibitor, partial curve, poor fit]. `NC(=O)c1ccc2nc(-c3ccccc3)c(-c3ccccc3)nc2c1` was tested, and the Potency was inconclusive: 63.1 µM [inhibitor, single point]. With `COc1cc(/C=C2/C(=O)NN(c3ccccc3)C2=O)cc(Br)c1O` the Potency was “inactive”. In the case of `O=C(O)Cn1c(O)c(C2=c3ccccc3=NC2=O)sc1=O`, the Potency is reported as inconclusive: 25.1 µM [inhibitor, single point]. With `Cc1cc(O)c2c(C)c(CC(=O)NCc3ccccc3Cl)c(=O)oc2c1` the Potency was “inactive”. In the case of `O=C(O)c1cc([N+](=O)[O-])c(NCc2cccnc2)c([N+](=O)[O-])c1`, the Potency is reported as inconclusive: 100 µM [inhibitor, partial curve, poor fit]. With `CCCCCc1nc2c(=O)[nH]c3ccccc3c2o1` the Potency was “inactive”. `COc1cccc(C(c2nnnn2CCc2ccccc2)N2CCN(c3ccccc3)CC2)c1OC` (stereo not given) was tested, and the Potency was inconclusive: 35.5 µM [inhibitor, single point]. With `COc1ccc(NC(=O)Cn2nnc(C(=O)NCc3ccccc3)c2N)c(OC)c1` the Potency was inconclusive: 100 µM [inhibitor, single point]. With `CCCCn1nc2cc(C(=O)NCc3ccc(OC(F)(F)F)cc3)ccc2c1OC` the Potency was inconclusive: 14.1 µM [inhibitor, partial curve]. For `Cc1ccc(NC(=O)c2c(NC(=O)CCC(=O)O)sc3c2CCCCC3)cc1`, the Potency was inconclusive: 14.1 µM [inhibitor, full curve, poor fit]. For `O=C(O)C/C(=C\c1cc2c(cc1Br)OCO2)c1nc2ccccc2s1`, the Potency was inconclusive: 17.8 µM [inhibitor, partial curve, poor fit]. In the case of `COc1cc(CNc2ccc(O)cc2)cc(Br)c1OCc1ccccc1`, the Potency is reported as active: 15.8 µM. In the case of `O=C(NCCc1ccccc1)c1c[nH]c2ccc(S(=O)(=O)Nc3ccc(F)cc3F)cc2c1=O`, the Potency is reported as inconclusive: 79.4 µM [inhibitor, partial curve, poor fit]. For `c1ccc(CC2CCN(C3=Nc4cccc5cccc3c45)CC2)cc1`, the Potency was inconclusive: 5.01 µM [inhibitor, full curve, poor fit]. `C/C(=N/NC(=O)CNC(=O)c1ccco1)c1ccco1` was tested, and the Potency was inconclusive: 89.1 µM [inhibitor, partial curve, poor fit]. With `CCCCOC(=O)c1ccc(NC(=O)c2ocnc2C)cc1` the Potency was inconclusive: 3.55 µM [inhibitor, single point]. For `C[C@@H](NC(=O)[C@@H]1Cc2ccccc2CN1)C(=O)NCC1CCCO1` (stereo not given in full), the Potency was inconclusive: 5.01 µM [inhibitor, full curve, poor fit]. `CC1(C)C(=O)CC[C@]2(C)C3C(=O)C=C4[C@H]5C[C@@](C)(C(=O)O)CC[C@]5(C)CC[C@]4(C)[C@]3(C)CC[C@@H]12` (stereo not given in full) was tested, and the Potency was “inactive”. With `Cc1cc2nc(CO)[nH]c2cc1C` the Potency was “inactive”. `CC1CN(C(=O)Nc2cccc(Cl)c2)C2(CCCCCC2)O1` (stereo not given) was tested, and the Potency was inconclusive: 79.4 µM [inhibitor, single point]. `COc1cccc(NC(=O)C2CCCN(c3ncnc4onc(-c5ccc(F)cc5)c34)C2)c1` (stereo not given) was tested, and the Potency was inconclusive: 89.1 µM [inhibitor, single point]. For `COc1nccnc1NS(=O)(=O)c1ccc(NC(=S)NC(=O)/C=C/c2ccc(F)cc2)cc1`, the Potency was inconclusive: 11.2 µM [inhibitor, partial curve]. With `CCc1ccc(C(=O)c2cn(CC(=O)NCCc3ccccc3)c3nc(C)ccc3c2=O)cc1` the Potency was “inactive”. `Cc1ccc(CNC(=O)c2cn(C3CCCCC3)c(=O)c3c2c2ccccc2n3C)o1` was tested, and the Potency was inconclusive: 22.4 µM [inhibitor, single point]. With `CCN(CC)CCCN1C=C2C(=O)C(C)(OC(=O)C3CCCC3)C(=O)C=C2C=C1c1ccsc1` (stereo not given) the Potency was inconclusive: 22.4 µM [inhibitor, full curve]. For `CCS(=O)c1ccccc1C(=O)OCC(=O)N1CCC(c2ccccc2)=N1` (stereo not given), the Potency was “inactive”. `CCn1c(C)cc(/C=C2\SC(=O)N(CC(=O)Nc3ccc(C)c(C)c3)C2=O)c1C` was tested, and the Potency was “inactive”. `O=C1Nc2ccccc2/C1=C\C(=O)c1ccccc1` was tested, and the Potency was inconclusive: 3.98 µM [inhibitor, partial curve, poor fit]. In the case of `O=C1C(Cl)=C(N2CCC(C(=O)O)CC2)C(=O)c2ccccc21`, the Potency is reported as inconclusive: 14.1 µM [inhibitor, full curve, poor fit]. For `COc1cc(/C=N/N2C(=O)c3ccccc3NC2(C)c2cccc([N+](=O)[O-])c2)cc(Br)c1O` (stereo not given), the Potency was inconclusive: 31.6 µM [inhibitor, partial curve, poor fit]. With `CC(=O)c1c(C)[nH]c(C(=O)COC(=O)c2cc(C)oc2C)c1C` the Potency was inconclusive: 56.2 µM [inhibitor, partial curve, poor fit]. For `COc1ccc(Cl)cc1C(=O)OCC(=O)Nc1sccc1C(N)=O`, the Potency was inconclusive: 31.6 µM [inhibitor, partial curve, poor fit]. With `O=C(NCc1ccc2c(c1)OCO2)c1ccc(C2SCC(=O)N2Cc2ccco2)cc1` (stereo not given) the Potency was inconclusive: 28.2 µM [inhibitor, full curve]. For `COc1ccc(-c2cc(C(F)(F)F)n3nc(C)c(-c4ccccc4)c3n2)cc1OC`, the Potency was “inactive”. In the case of `c1ccc(NC2=NCCN2CC2CCCCC2)cc1`, the Potency is reported as inconclusive: 31.6 µM [inhibitor, partial curve, poor fit]. `Cn1c(CS/C(N)=N/N=C/c2ccccc2)c(Br)c(=O)n1-c1ccccc1` was tested, and the Potency was inconclusive: 31.6 µM [inhibitor, partial curve, poor fit]. With `C#CCOCCOCCOCCNc1nc(N2CCN(C(=O)[C@H]([C@@H](C)CC)n3cc(CCCN=C(N)N)nn3)CC2)nc(N2CCN(C(=O)[C@H](C)n3cc(CCCN=C(N)N)nn3)CC2)n1` the Potency was inconclusive: 4.47 µM [inhibitor, partial curve, poor fit]. In the case of `CC(C)(C)n1nnnc1CN(Cc1cccnc1)Cc1ccccc1Cl`, the Potency is reported as inconclusive: 35.5 µM [inhibitor, single point]. In the case of `CCN(CCn1cccn1)Cc1cn[nH]c1-c1ccc(OC)cc1F`, the Potency is reported as inconclusive: 3.16 µM [inhibitor, partial curve, poor fit]. For `O=C(Cc1ccccn1)c1ccc(F)cc1`, the Potency was inconclusive: 20 µM [inhibitor, single point]. In the case of `Cn1c(CNC(=O)CCNC(=O)c2cccc(Cl)c2)cc(=O)n(C)c1=O`, the Potency is reported as “inactive”. For `CC(=O)Nc1ccc(N2CCCCC2)c(C(=O)Nc2cccc(C)c2)c1`, the Potency was “inactive”. With `CCOc1ccc(Cl)cc1CSc1ncn[nH]1` the Potency was inconclusive: 89.1 µM [inhibitor, single point].
